This passage reports binding results from article PMC5381226.

Chains of the proteins cited; added tags and fusions are not shown. Residues count along the entry.
UniProt Q9Z0X1, residues 102-612: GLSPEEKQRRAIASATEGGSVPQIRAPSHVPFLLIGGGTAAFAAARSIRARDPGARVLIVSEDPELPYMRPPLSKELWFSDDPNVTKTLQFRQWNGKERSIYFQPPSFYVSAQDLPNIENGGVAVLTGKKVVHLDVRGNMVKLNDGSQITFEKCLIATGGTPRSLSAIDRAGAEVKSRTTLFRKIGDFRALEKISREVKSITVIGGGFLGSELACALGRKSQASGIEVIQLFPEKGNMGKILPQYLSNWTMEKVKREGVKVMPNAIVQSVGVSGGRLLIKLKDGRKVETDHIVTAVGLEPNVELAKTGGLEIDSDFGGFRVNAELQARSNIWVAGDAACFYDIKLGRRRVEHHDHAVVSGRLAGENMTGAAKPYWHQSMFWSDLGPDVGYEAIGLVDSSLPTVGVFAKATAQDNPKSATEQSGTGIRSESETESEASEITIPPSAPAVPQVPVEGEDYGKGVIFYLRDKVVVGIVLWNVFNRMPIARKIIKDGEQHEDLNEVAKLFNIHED
UniProt Q80V62: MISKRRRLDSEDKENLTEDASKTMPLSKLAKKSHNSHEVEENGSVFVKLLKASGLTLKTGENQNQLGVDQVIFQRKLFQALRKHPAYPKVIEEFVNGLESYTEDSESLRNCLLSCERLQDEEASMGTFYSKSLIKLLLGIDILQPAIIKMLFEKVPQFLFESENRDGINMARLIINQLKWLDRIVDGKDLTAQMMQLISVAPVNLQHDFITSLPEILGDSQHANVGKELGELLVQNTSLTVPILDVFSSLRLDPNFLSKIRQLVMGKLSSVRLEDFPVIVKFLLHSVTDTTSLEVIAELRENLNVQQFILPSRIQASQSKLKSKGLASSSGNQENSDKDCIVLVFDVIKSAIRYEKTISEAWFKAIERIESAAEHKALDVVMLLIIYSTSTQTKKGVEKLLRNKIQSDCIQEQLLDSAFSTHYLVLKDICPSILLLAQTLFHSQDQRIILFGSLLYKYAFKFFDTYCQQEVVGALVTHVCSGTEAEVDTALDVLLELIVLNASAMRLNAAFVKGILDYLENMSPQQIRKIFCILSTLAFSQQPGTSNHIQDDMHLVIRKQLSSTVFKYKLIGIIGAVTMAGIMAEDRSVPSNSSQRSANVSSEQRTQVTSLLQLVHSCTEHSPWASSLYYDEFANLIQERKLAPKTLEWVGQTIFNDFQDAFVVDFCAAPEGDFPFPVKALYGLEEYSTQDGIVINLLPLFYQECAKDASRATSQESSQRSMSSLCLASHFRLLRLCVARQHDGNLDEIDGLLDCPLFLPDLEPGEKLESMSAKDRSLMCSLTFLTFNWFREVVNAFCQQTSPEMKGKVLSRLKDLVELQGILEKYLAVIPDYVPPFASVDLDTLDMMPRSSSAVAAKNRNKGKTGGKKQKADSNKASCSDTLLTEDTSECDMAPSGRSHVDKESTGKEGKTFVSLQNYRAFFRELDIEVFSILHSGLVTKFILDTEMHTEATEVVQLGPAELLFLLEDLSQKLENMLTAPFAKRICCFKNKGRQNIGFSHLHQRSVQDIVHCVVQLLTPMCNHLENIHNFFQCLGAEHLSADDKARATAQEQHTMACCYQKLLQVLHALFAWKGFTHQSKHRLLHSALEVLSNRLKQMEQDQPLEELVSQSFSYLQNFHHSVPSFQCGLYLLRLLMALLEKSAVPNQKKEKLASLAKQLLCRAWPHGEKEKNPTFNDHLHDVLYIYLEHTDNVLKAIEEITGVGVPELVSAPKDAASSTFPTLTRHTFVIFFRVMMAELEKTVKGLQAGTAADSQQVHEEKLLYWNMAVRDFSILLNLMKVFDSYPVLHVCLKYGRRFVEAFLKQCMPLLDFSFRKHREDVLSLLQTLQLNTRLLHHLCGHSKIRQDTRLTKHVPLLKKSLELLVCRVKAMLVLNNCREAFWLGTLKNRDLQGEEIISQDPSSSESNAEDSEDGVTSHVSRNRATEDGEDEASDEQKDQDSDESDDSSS

Results are given in words; binding and its absence hold for the method and conditions named. Binding seen in cells or lysates may run through a third protein. Some results given as binding are weak or reduced against the parent protein; the word gives no strength.

Experiment [1] concerns the target Aifm (Apoptosis-Inducing Factor, Mitochondrion-Associated) (mouse (endogenous in mouse tissues)) (UniProt Q9Z0X1). The experiment in a line: co-IP; immunoprecipitation with antibodies to Atad3, Tufm and Aifm from lysates of Fancd2^KI/KI spleen MNCs (also Fanca-/- Fancd2^KI/KI and Fancd2-/- spleen MNCs), immunoblot. (A western blot detects proteins with antibodies after separation by electrophoresis.)

Experiment [2] addresses T1, Atad3 (mouse (endogenous in mouse tissues and cells)) (UniProt Q925I1).
T1 sequence: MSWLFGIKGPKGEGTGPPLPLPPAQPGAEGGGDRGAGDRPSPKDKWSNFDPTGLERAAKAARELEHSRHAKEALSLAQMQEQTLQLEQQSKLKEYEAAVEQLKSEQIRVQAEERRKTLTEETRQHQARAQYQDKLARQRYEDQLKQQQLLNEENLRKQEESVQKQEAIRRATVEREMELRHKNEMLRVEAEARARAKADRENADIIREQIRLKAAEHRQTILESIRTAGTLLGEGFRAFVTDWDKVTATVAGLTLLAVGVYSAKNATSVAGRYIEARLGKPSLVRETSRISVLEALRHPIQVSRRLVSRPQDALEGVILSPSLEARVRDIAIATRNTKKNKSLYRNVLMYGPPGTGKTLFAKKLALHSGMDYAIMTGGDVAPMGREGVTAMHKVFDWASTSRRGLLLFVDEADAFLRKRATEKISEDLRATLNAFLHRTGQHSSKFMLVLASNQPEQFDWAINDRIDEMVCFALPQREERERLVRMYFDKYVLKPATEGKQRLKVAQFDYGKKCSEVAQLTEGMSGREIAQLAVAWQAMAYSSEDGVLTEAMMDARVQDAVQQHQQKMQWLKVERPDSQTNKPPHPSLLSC
The description is as above.

In experiment [3] the target is 3XFLAG/HA-tagged Fancd2 (mouse) (UniProt Q80V62). The experiment in a line: co-IP; anti-FLAG immunoprecipitation of tagged Fancd2 and immunoblot of partners; spleen MNCs (Fig. 2D); tissue of Supplemental Fig. 3 not told.

Regarding “3XFLAG/HA-tagged Fancd2 (from UniProt Q80V62 1-1450)”, the binding entry in experiment [1] and in experiment [2] was “binds” throughout.

B1: Fanci (protein, UniProt Q8K368 1-1330)
chain: MDLKILSLATDKTTDKLQEFLQTLKDDDLASLLQNQAVKGRAVGTLLRAVLKGSPCSEEDGALRRYKIYSCCIQLVESGDLQQDVASEIIGLLMLEVHHFPGPLLVDLASDFVGAVREDRLVNGKSLELLPIILTALATKKEVLACGKGDLNGEEYKRQLIDTLCSVRWPQRYMIQLTSVFKDVCLTPEEMNLVVAKVLTMFSKLNLQEIPPLVYQLLVLSSKGSRRSVLDGIIAFFRELDKQHREEQSSDELSELITAPADELYHVEGTVILHIVFAIKLDCELGRELLKHLKAGQQGDPSKCLCPFSIALLLSLTRIQRFEEQVFDLLKTSVVKSFKDLQLLQGSKFLQTLVPQRTCVSTMILEVVRNSVHSWDHVTQGLIEFGFILMDSYGPKKILDGKAVEIGTSLSKMTNQHACKLGANILLETFKIHEMIRQEILEQVLNRVVTRTSSPINHFLDLFSDIIMYAPLILQNCSKVTETFDYLTFLPLQTVQGLLKAVQPLLKISMSMRDSLILVLRKAMFASQLDARKSAVAGFLLLLKNFKVLGSLPSSQCTQSIGVTQVRVDVHSRYSAVANETFCLEIIDSLKRSLGQQADIRLMLYDGFYDVLRRNSQLASSIMQTLFSQLKQFYEPEPDLLPPLKLGACVLTQGSQIFLQEPLDHLLSCIQHCLAWYKSRVVPLQQGDEGEEEEEELYSELDDMLESITVRMIKSELEDFELDKSADFSQNTNVGIKNNICACLIMGVCEVLMEYNFSISNFSKSKFEEILSLFTCYKKFSDILSEKAGKGKAKMTSKVSDSLLSLKFVSDLLTALFRDSIQSHEESLSVLRSSGEFMHYAVNVTLQKIQQLIRTGHVSGPDGQNPDKIFQNLCDITRVLLWRYTSIPTSVEESGKKEKGKSISLLCLEGLQKTFSVVLQFYQPKVQQFLQALDVMGTEEEEAGVTVTQRASFQIRQFQRSLLNLLSSEEDDFNSKEALLLIAVLSTLSRLLEPTSPQFVQMLSWTSKICKEYSQEDASFCKSLMNLFFSLHVLYKSPVTLLRDLSQDIHGQLGDIDQDVEIEKTDHFAVVNLRTAAPTVCLLVLSQAEKVLEEVDWLIAKIKGSANQETLSDKVTPEDASSQAVPPTLLIEKAIVMQLGTLVTFFHELVQTALPSGSCVDTLLKGLSKIYSTLTAFVKYYLQVCQSSRGIPNTVEKLVKLSGSHLTPVCYSFISYVQNKSSDAPKCSEKEKAAVSTTMAKVLRETKPIPNLVFAIEQYEKFLIQLSKKSKVNLMQHMKLSTSRDFKIKGSVLDMVLREDEEDENEEGTASAHTQQDREPAKKRRKKCLS
For B1, the binding entry in experiment [3] is reported as “binds”.

B2: Tfam (Transcription Factor A, Mitochondrial) (protein, UniProt P40630 43-243)
chain: SSMGSYPKKPMSSYLRFSTEQLPKFKAKHPDAKLSELVRKIAALWRELPEAEKKVYEADFKAEWKAYKEAVSKYKEQLTPSQLMGMEKEARQRRLKKKALVKRRELILLGKPKRPRSAYNIYVSESFQEAKDDSAQGKLKLVNEAWKNLSPEEKQAYIQLAKDDRIRYDNEMKSWEEQMAEVGRSDLIRRSVKRSGDISEH
In the case of B2, in experiment [2], the binding entry was “binds”.
